Laboratory results taken from US7507555B2, “Probe for detecting and quantifying lipid second messenger and method of detecting and quantifying lipid second messenger using the same” (Japan Science and Technology Agency, priority 2003, dated 2009).
At least one compound was matched to its structure with a doubt left.

System: PI3K
Experiment: Wortmannin pretreatment before PDGF stimulation of Fllip-pm-expressing CHO-PDGFR cells
Type: cell-based, Chinese hamster
Settings: pretreatment with 100 nM wortmannin, PDGF 50 ng/mL

Compound: COC[C@H]1OC(=O)c2coc3c2[C@@]1(C)C1=C(C3=O)[C@@H]2CCC(=O)[C@@]2(C)C[C@H]1OC(C)=O [wortmannin]
- FRET response from Fllip-pm by the PDGF stimulation: completely disappeared
